{"source": "patent US20260308278A1", "about": "“ANTIBODY THAT BINDS TO C3bBb” (Hoffmann-La Roche Inc., priority 2023, published 2026)", "molecules": {"B1": {"name": "FB (D279G, K350N and M458I): FB with D279G, K350N and M458I mutations is indicated in SEQ ID NO: 493 (protein, UniProt P00751 26-764, looked up, variant D279G K350N M458I)", "Complement factor B": "TPWSLARPQGSCSLEGVEIKGGSFRLLQEGQALEYVCPSGFYPYPVQTRTCRSTGSWSTLKTQDQKTVRKAECRAIHCPRPHDFENGEYWPRSPYYNVSDEISFHCYDGYTLRGSANRTCQVNGRWSGQTAICDNGAGYCSNPGIPIGTRKVGSQYRLEDSVTYHCSRGLTLRGSQRRTCQEGGSWSGTEPSCQDSFMYDTPQEVAEAFLSSLTETIEGVDAEDGHGPGEQQKRKIVLDPSGSMNIYLVLDGSGSIGASNFTGAKKCLVNLIEKVASYGVKPRYGLVTYATYPKIWVKVSEADSSNADWVTKQLNEINYEDHKLNSGTNTKKALQAVYSMMSWPDDVPPEGWNRTRHVIILMTDGLHNMGGDPITVIDEIRDLLYIGKDRKNPREDYLDVYVFGVGPLVNQVNINALASKKDNEQHVFKVKDIENLEDVFYQMIDESQSLSLCGMVWEHRKGTDYHKQPWQAKISVIRPSKGHESCMGAVVSEYFVLTAAHCFTVDDKEHSIKVSVGGEKRDLEIEVVLFHPNYNINGKKEAGIPEFYDYDVALIKLKNKLKYGQTIRPICLPCTEGTTRALRLPPTTTCQQQKEELLPAQDIKALFVSEEEKKLTRKEVYIKNGDKKGSCERDAQYAPGYDKVKDISEVVTPRFLCTGGVSPYADPNTCRGDSGGPLIVHKRSRFIQVGVISWGVVDVCKNQKRQKQVPAHARDFHINLFQVLPWLKEKLQDEDLGFL"}}, "tested_on": "human C3bBb complex", "assay": "Stability (decay) of C3bBb complexes with different Bb subunits by Bio Layer Interferometry", "type": "binding", "data": [{"molecule": "B1", "values": [{"measurement": "prevalence of main species", "setting": "Mg2+, double exponential fit", "value": 93, "unit": "%"}, {"measurement": "prevalence of main species", "setting": "Ni2+, single exponential fit", "value": 100, "unit": "%"}]}]}
